# PubChem BioAssay AID743454, Peter MacCallum Cancer Centre | 2014
# Test: 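Genes whose loss kills vorinostat-resistant colon cancer cells under vorinostat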 (primary screen)
# System: human HCT116-VR colon cancer cells, selected for vorinostat resistance
# Knock-down reagent: siRNA pool against human genes, 40 nM siRNA pool
# Timing: vorinostat for 24 h, read-out about 72 h after transfection
# Challenge: vorinostat at 2.5 µM final
# Read-out: 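Cell viability by CellTiter-Fluor and caspase 3/7 activity by luminescence, each scaled to mock wells per plate, duplicates averaged, then robust z-scored over all plates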
# Direction: viability robust z-score: higher = more viable cells than screen typical; caspase robust z-score: higher = more caspase 3/7 activity than screen typical
# Hit rule: 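Hits are knock-downs in viability class RV1/RV2 or caspase class CA1/CA2, excluding ones that killed cells in the no-drug cell-count arm; hits then retested with single siRNAs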
# The whole screen tested about 18,000 reagents; below is a random part of them. 450 of all reagents (2.5%) were called active. 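Single biological run; no consistent viability z cut-off exists, so the class columns, not z-scores, define the calls.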 Unmarked entries are inactive. Reagents against one gene are numbered here.
Target gene,pool no.,viability hit class,caspase hit class,viability robust z-score,caspase robust z-score
TRO (GeneID 7216),1,no change,no change,-1.86,-0.26
FBP2 (GeneID 8789),1,no change,no change,0.17,-0.34
POLR1D (GeneID 51082),1,no change,no change,0.98,-1.16
HSD11B1 (GeneID 3290),1,no change,no change,-0.18,-0.94
CFAP299 (GeneID 255119),1,no change,no change,-2.17,0.3
LCOR (GeneID 84458),1,no change,no change,1.03,-0.26
LCOR (GeneID 84458),2,no change,no change,1.52,0.26
GADD45G (GeneID 10912),1,no change,no change,-0.08,-0.9
UNC5D (GeneID 137970),1,no change,no change,-0.92,-1.5
PTX3 (GeneID 5806),1,no change,no change,1.19,-0.67
GOSR2 (GeneID 9570),1,no change,no change,0.79,-0.3
HARBI1 (GeneID 283254),1,no change,no change,0.44,-1.1
TCEAL5 (GeneID 340543),1,no change,no change,-0.4,0.16
GPATCH2L (GeneID 55668),1,no change,no change,-1.77,-1.15
SMU1 (GeneID 55234),1,no change,no change,-3.86,2.85
RFX2 (GeneID 5990),1,no change,no change,0.41,2.01
TOP1MT (GeneID 116447),1,no change,no change,0.64,-1.19
IFT27 (GeneID 11020),1,no change,no change,0.36,-0.88
PCYOX1L (GeneID 78991),1,no change,no change,1.4,0.34
CENPF (GeneID 1063),1,no change,no change,0.04,0.59
GABBR2 (GeneID 9568),1,no change,no change,0,-0.11
GPR34 (GeneID 2857),1,no change,no change,1.01,1.86
DOCK10 (GeneID 55619),1,no change,no change,1.32,-0.01

Copied from above (3 entries):
Target gene,pool no.,viability hit class,caspase hit class,viability robust z-score,caspase robust z-score
FBP2 (GeneID 8789),1,no change,no change,0.17,-0.34
POLR1D (GeneID 51082),1,no change,no change,0.98,-1.16
HSD11B1 (GeneID 3290),1,no change,no change,-0.18,-0.94
